Measured values as given in the supplement of paper PMC4604168 (melanoma cell lines).
The other results are listed elsewhere or left out. Many values rest on one well or one pass, so single values are uncertain.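 The apoptosis fraction was the count of cleaved-PARP antibody-stained nuclei relative to all DNA-stained nuclei, imaged in 1,536-well plates. Screening doses were set so most cells survived, and baseline and induced cleaved-PARP levels vary greatly across cell lines.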

Legend:
Test in all cases: cleaved PARP positive nuclei fraction relative to DMSO control; melanoma cells; higher = more apoptosis
Conditions in all cases: library dose: low library concentration; 72 h
MZ2-MEL = tested on: MZ2-MEL
MeWo = tested on: MeWo
RPMI7951 = tested on: RPMI7951
RVH-421 = tested on: RVH-421
SkMel28 = tested on: SkMel28
SkMel2 = tested on: SkMel2
SkMel30 = tested on: SkMel30
SkMel5 = tested on: SkMel5
UACC257 = tested on: UACC257
UACC62 = tested on: UACC62

| Structure (SMILES) | cleaved PARP positive nuclei fraction (MZ2-MEL) | cleaved PARP positive nuclei fraction (MeWo) | cleaved PARP positive nuclei fraction (RPMI7951) | cleaved PARP positive nuclei fraction (RVH-421) | cleaved PARP positive nuclei fraction (SkMel28) | cleaved PARP positive nuclei fraction (SkMel2) | cleaved PARP positive nuclei fraction (SkMel30) | cleaved PARP positive nuclei fraction (SkMel5) | cleaved PARP positive nuclei fraction (UACC257) | cleaved PARP positive nuclei fraction (UACC62) |
| --- | --- | --- | --- | --- | --- | --- | --- | --- | --- | --- |
| C[C@@H](N)c1ccc(C(=O)Nc2ccnc3[nH]ccc23)cc1 + O=C(O)C(=O)Nc1sc2c(c1C(=O)O)CCNC2 [TCS401] (first compound 0.4 µM, partner dose 1.66667 µM) | 147% | 110% | 76.7% | 74.8% | 366% | 117% | 134% | 81.1% | 108% | 180% |
| CN(c1ncccc1CNc1nc(Nc2ccc3c(c2)CC(=O)N3)ncc1C(F)(F)F)S(C)(=O)=O + Cc1cc([N+](=O)[O-])ccc1NS(=O)(=O)c1cc(Cl)ccc1Cl [FH535] (first compound 0.08 µM, partner dose 1 µM) | 165% | 57.5% | 89.8% | 97.8% | 245% | 117% | 279% | 191% | 101% | 115% |
| Cn1cnc2c(F)c(Nc3ccc(Br)cc3Cl)c(C(=O)NOCCO)cc21 [selumetinib] + CC1(C)NC(=O)N(c2ccc([N+](=O)[O-])c(C(F)(F)F)c2)C1=O [nilutamide] (first compound 0.015 µM, partner dose 1 µM) | 464% | 77.7% | 90.6% | 165% | 213% | 117% | 198% | 103% | 137% | 183% |
| CCN(CC)CCNC(=O)c1c(C)[nH]c(/C=C2\C(=O)Nc3ccc(F)cc32)c1C [sunitinib] + OCCn1cc(-c2cnc3nnn(Cc4ccc5ncccc5c4)c3n2)cn1 [PF04217903] (first compound 0.4 µM, partner dose 1 µM) | 103% | 115% | 90.7% | 97.9% | 40.3% | 54.5% | 43.1% | 78.2% | 155% | 146% |
| C[C@]1(O)C[C@@H](c2nc(-c3ccc4ccc(-c5ccccc5)nc4c3)c3c(N)nccn32)C1 + COc1cc2c(Oc3ccc4[nH]c(C)cc4c3F)ncnc2cc1OCCCN1CCCC1 [cediranib] (first compound 0.4 µM, partner dose 0.4 µM) | 83.3% | 50.4% | 73.6% | 64.5% | 123% | 133% | 70.9% | 250% | 115% | 173% |
| Cn1cnc2c(F)c(Nc3ccc(Br)cc3Cl)c(C(=O)NOCCO)cc21 [selumetinib] + COC(=O)c1sccc1S(=O)(=O)Nc1ccc(Nc2ccccc2)cc1OC [GSK0660] (first compound 0.015 µM, partner dose 1 µM) | 141% | 122% | 150% | 132% | 143% | 81% | 85.2% | 66.6% | 258% | 198% |
| CN(c1ncccc1CNc1nc(Nc2ccc3c(c2)CC(=O)N3)ncc1C(F)(F)F)S(C)(=O)=O + c1cc(-c2cnn3cc(-c4ccc(OCCN5CCCCC5)cc4)cnc23)ccn1 [Dorsomorphin] (first compound 0.08 µM, partner dose 0.4 µM) | 113% | 78.1% | 41.6% | 133% | 140% | 47.8% | 114% | 55.4% | 208% | 209% |
| Cn1sc(=O)n(Cc2ccccc2)c1=O + COc1cc(N2CCC(N3CCN(C)CC3)CC2)ccc1Nc1ncc(Cl)c(Nc2ccccc2S(=O)(=O)C(C)C)n1 [NVP-TAE684] (first compound 0.4 µM, partner dose 0.08 µM) | 134% | 42.4% | 151% | 91.4% | 321% | 79.1% | 81.7% | 80.7% | 85.1% | 119% |
| Cn1sc(=O)n(Cc2ccccc2)c1=O + O=C(O)C(=O)Nc1sc2c(c1C(=O)O)CCNC2 [TCS401] (first compound 0.4 µM, partner dose 1.66667 µM) | 205% | 124% | 41% | 81.9% | 78.6% | 122% | 78.3% | 74.8% | 114% | 361% |
